These are yes or no findings as the source states them, for the method shown. Binding seen in cells or lysates may run through a third protein. These calls come from enrichment with a bait or labelling near it, and not all partners need be listed. For part of these data: Sequences can lack the tags named with a protein.
T1: GFP-DDHD2 (pEGFP-C1-DDHD2^WT) (UniProt O94830)
T1 sequence: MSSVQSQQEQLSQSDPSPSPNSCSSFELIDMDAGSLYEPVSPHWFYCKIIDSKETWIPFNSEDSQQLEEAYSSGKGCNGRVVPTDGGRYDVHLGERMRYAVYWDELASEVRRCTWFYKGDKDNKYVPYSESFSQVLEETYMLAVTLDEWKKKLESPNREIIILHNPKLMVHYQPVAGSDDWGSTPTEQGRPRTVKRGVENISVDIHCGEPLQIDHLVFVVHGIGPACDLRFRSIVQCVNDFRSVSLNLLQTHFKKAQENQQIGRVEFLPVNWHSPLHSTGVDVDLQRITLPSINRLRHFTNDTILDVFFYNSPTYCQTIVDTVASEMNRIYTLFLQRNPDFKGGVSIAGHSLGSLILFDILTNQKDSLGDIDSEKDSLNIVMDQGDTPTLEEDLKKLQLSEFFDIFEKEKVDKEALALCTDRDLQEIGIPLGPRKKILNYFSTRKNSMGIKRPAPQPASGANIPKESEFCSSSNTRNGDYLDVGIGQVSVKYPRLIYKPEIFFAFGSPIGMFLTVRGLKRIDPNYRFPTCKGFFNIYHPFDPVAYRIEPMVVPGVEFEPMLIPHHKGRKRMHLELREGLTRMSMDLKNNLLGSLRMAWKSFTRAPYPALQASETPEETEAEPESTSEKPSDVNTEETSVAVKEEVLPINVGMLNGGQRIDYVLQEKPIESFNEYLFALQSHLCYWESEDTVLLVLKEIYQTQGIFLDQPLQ

Chains of the proteins cited; added tags and fusions are not shown.
UniProt P61765: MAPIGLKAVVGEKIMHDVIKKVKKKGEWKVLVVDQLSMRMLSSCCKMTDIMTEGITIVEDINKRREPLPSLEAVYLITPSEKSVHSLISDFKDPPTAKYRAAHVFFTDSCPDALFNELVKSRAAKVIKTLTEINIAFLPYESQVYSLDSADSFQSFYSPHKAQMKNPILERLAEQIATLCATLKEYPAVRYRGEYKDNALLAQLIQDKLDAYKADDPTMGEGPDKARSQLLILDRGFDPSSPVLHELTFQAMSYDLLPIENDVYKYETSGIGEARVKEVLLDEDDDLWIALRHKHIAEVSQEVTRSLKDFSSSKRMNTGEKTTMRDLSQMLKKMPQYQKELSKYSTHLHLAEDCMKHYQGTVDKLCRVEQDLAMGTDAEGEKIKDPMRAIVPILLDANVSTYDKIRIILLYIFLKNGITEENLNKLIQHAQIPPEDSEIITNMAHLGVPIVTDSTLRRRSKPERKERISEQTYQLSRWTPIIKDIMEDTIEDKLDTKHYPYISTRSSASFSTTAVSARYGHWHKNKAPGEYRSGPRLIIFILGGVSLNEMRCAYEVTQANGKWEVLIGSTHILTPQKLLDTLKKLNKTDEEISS

B1: Rab3c, endogenous in PC12 cells (protein, UniProt P62824 1-227)
chain: MRHEAPMQMASAQDARFGQKDSSDQNFDYMFKLLIIGNSSVGKTSFLFRYADDSFTSAFVSTVGIDFKVKTVFKNEKRIKLQIWDTAGQERYRTITTAYYRGAMGFILMYDITNEESFNAVQDWSTQIKTYSWDNAQVILAGNKCDMEDERVVSTERGQRLGEQLGFEFFETSAKDNINVKQTFERLVDIICDKMSESLETDPAITAAKQSTRLKETPPPPQPNCGC
B2: Rab10, endogenous in PC12 cells (protein, UniProt P35281 1-200)
chain: MAKKTYDLLFKLLLIGDSGVGKTCVLFRFSDDAFNTTFISTIEIDFKIKTVELQGKKIKLQIWDTAGQERFHTITTSYYRGAMGIMLVYDITNGKSFENISKWLRNIDQHANEDVERMLLRNKCDMDHKRVVPKGKGEQIAREHRIRFFETSAKANINIEKAFLTLPEDILRKTPVKEPNSENVDISSGGGVTGWKSKCC
B3: Rab5c, endogenous in PC12 cells (protein, UniProt B0BNK1 1-216)
chain: MAGRGGAARPNGPAAGNKICQFKLVLLGESAVGKSSLVLRFVKGQFHEYQESTIGAAFLTQTVCLDDTTVKFEIWDTAGQERYHSLAPMYYRGAQAAIVVYDITNTDTFARAKNWVKELQRQASPNIVIALAGNKADLASKRAVEFQEAQAYADDNSLLFMETSAKTAMNVNEIFMAIAKKLPKNEPQNAAGAPGRNRGVDLQESNPASRSQCCSN
B4: Nefm, endogenous in PC12 cells (protein, UniProt P12839 1-846)
chain: MSYTLDSLGNPSAYRRVPTETRSSFSRVSGSPSSGFRSQSWSRGSPSTVSSSYKRSALAPRLAYSSAMLSSAESSLDFSQSSSLLNGGSGGDYKLSRSNEKEQLQGLNDRFAGYIEKVHYLEQQNKEIEAEIHALRQKQASHAQLGDAYDQEIRELRATLEMVNHEKAQVQLDSDHLEEDIHRLKERFEEEARLRDDTEAAIRAVRKDIEESSMVKVELDKKVQSLQDEVAFLRSNHEEEVADLLAQIQASHITVERKDYLKTDISTALKEIRSQLECHSDQNMHQAEEWFKCRYAKLTEAAEQNKEAIRSAKEEIAEYRRQLQSKSIELESVRGTKESLERQLSDIEERHNHDLSSYQDTIQQLENELRGTKWEMARHLREYQDLLNVKMALDIEIAAYRKLLEGEETRFSTFSGSITGPLYTHRQPSVTISSKIQKTKVEAPKLKVQHKFVEEIIEETKVEDEKSEMEDALTVIAEELAASAKEEKEEAEEKEEEPEVEKSPVKSPEAKEEEEGEKEEEEEGQEEEEEEDEGVKSDQAEEGGSEKEGSSEKDEGEQEEEGETEAEGEGEEAEAKEEKKTEGKVEEMAIKEEIKVEKPEKAKSPVPKSPVEEVKPKPEAKAGKDEQKEEEKVEEKKEVAKESPKEEKVEKKEEKPKDVPDKKKAESPVKEKAVEEMITITKSVKVSLEKDTKEEKPQQQEKVKEKAEEEGGSEEEVGDKSPQESKKEDIAINGEVEGKEEEEQETQEKGSGQEEEKGVVTNGLDVSPAEEKKGEDRSDDKVVVTKKVEKITSEGGDGATKYITKSVTVTQKVEEHEETFEEKLVSTKKVEKVTSHAIVKEVTQGD
B5: Sec22b, endogenous in PC12 cells (protein, UniProt Q4KM74 1-215)
chain: MVLLTMIARVADGLPLAASMQEDEQSGRDLQQYQSQAKQLFRKLNEQSPTRCTLEAGAMTFHYIIEQGVCYLVLCEAAFPKKLAFAYLEDLHSEFDEQHGKKVPTVSRPYSFIEFDTFIQKTKKLYIDSRARRNLGSINTELQDVQRIMVANIEEVLQRGEALSALDSKANNLSSLSKKYRQDAKYLNMRSTYAKLAAVAVFFIMLIVYVRFWWL
B6: DDHD2, endogenous in PC12 cells (enzyme, UniProt D3ZJ91 1-699)
chain: MSSGESYQEQLSQSDPSPSPNSSSSFELLDMDVGSSYEPVSPHWFYCKVIDSKELWIPFNSEDSQQLEEAHGSGKDCNERVVPTDGGRYDVHLGERMRYAVYWDELPSEVRRCTWFYKGDKDNKYVPYSESFSQVLEDTYMLAVTLDEWKKKLESPNREIIVLHNPKLMVHYQPITGSDEWGSTSTEQGRPRSVKRGVESIPVDIHCGEPLQIDHLVFVVHGIGPACDLRFRSIVQCVNDFRSVSLNLLQTHFKKAQENQQIGRVEFLPVNWHSPLHSTGVDIDLQRITLPSINRLRHFTNDTILDVFFYNSPTYCQTIVDTVASEMNRIYTLFLQRNPDFKGGVSIAGHSLGSLILFDILTNQKDSIGDIDSEKGSLSTAEDLGDVSTLEEELKKLQLSEFVTVFEKEKVDREALALCTDRDLQEMGIPLGPRKKILNHFSATKSSVGINRPTMSASEVNIPKEKGDYLDVGIGQVSVKYPRLNYKPEIFFAFGSPIGMFLTVRGLRRIDPNYKFPTCKGFFNIYHPFDPVAYRIEPMVVPGVEFEPMLIPHHKGRKRMHLELREGLTRMSMDLKNNLLGSLRMAWKSFTRAPYPALQASEMAEDTEAESEPSSEKPSDANTEEPPVEVKEEAPINVGMLNGGQRIDYVLQEKPIESFNEYLFALQSHLCYWESEDTVLLVLKEIYQTQGIFLDQPLQ

Legend:
[1] = target: T1, GFP-DDHD2 (pEGFP-C1-DDHD2^WT); experiment: affinity purification with mass spectrometry; anti-GFP magnetic beads on lysate (0.5% NP-40, 150 mM NaCl) of PC12 cells transfected with GFP-tagged DDHD2, resting state; tryptic digest, untargeted high-resolution tandem MS (HRMS), 1% FDR; proteins found in non-GFP process controls removed
[2] = target: STXBP1-emGFP (pCMV-STXBP1-emGFP) (UniProt P61765); experiment: affinity purification with mass spectrometry; anti-GFP pull-downs of GFP-tagged DDHD2 or GFP-tagged STXBP1 from PC12 cells; targeted MRM-MS of seven STXBP1 and four DDHD2 proteotypic peptides; unstimulated or stimulated (high K+) cells

Binder | binding [1] | binding [2]
B1 | binds | 
B2 | binds | 
B3 | binds | 
B4 | binds | 
B5 | binds | 
B6 |  | binds

From publication PMC10897203
